Assay results taken from patent publication US20160039796A1, “BARETTIN AND DERIVATIVES THEREOF FOR MEDICAL USE, IN PARTICULAR FOR THE TREATMENT OF DISEASES RELATED TO OXIDATIVE STRESS OR INFLAMMATION, AND FOR PRESERVING OR WASHING ORGANS” (ABC Bioscience AS, priority 2013, published 2016).
At least one structure is not confirmed: it was looked up by name or label, or the drawing left a doubt.

Tested on: IL-6 release from THP-1 cells
Assay: LPS-induced release of IL-6 from THP-1 cells (ELISA)
Assay type: cell-based, human
Conditions: 10 μN, LPS-treated cells
Procedure: Monocytes are well-recognised to respond to inflammatory stimuli by releasing a range of cytokines; IL-6 is a highly expressed pro-inflammatory cytokine in activated monocytes. The principle of this assay was to compare the effect of pre-incubating human cells from a monocyte-derived cell line (THP-1) with a known anti-inflammatory drug (dexamethasone; Dex), or a range of concentrations of barettin, on IL-6 generation in response to the inflammatory stimulus, lipopolysaccharide (LPS).
THP-1 cells (Health Protection Agency, Porton Down, UK) were maintained at 37° C. with 5% CO2 in RPMI 1640 containing 10% foetal bovine serum, 2 mM L-glutamine with 100 IU/ml penicillin and 100 μg/ml streptomycin (PAA laboratories Ltd, Yeovil, UK). The cells were grown in suspension and then plated out in 24-well plates at 2×10^5 cells per well.
Treatments: • a. vehicle control (RPMI 1640+0.5% DMSO) • b. 10 μM Dex for 24 h • c. 10 μg/ml LPS for 24 h • d. Pre-treated with 10 μM Dex for 30 min followed by 10 μg/ml lipopolysaccharide LPS for 24 h • e. Pre-treated with barettin at 1, 3, 10, 30 and 100 μg/ml for 30 min followed by 10 μg/ml LPS for 24 h […]
IL-6 expression was measured by ELISA (eBioscience, human IL-6 Platinum ELISA) according to the manufacturer's instructions. Data were collected using a VarioSkan Flash plate reader and Skanit software v2.4.3 (Thermo Fisher Scientific, Basingstoke, UK).

`C[C@@H]1C[C@H]2[C@@H]3CCC4=CC(=O)C=C[C@]4(C)[C@@]3(F)[C@@H](O)C[C@]2(C)[C@@]1(O)C(=O)CO` [Dexamethasone, dexamethasone, reference compound] was tested, and the “LPS-induced IL-6 generation” value was “abolished IL-6 generation”.
